Reference: paper PMC9532426, “Autophagy induction promoted by m6A reader YTHDF3 through translation upregulation of FOXO3 mRNA”
For at least one entry, the source does not settle the construct or the ends of the probe. A weaker result is weaker than the reference pair of the same experiment. At least one verdict rests on a figure or table, not on a statement of the authors. Protein sequences can lack the tags named with them.

Target: T1, YTHDF3 (mouse) (UniProt Q8BYK6)
T1 sequence (looked up, limits assumed): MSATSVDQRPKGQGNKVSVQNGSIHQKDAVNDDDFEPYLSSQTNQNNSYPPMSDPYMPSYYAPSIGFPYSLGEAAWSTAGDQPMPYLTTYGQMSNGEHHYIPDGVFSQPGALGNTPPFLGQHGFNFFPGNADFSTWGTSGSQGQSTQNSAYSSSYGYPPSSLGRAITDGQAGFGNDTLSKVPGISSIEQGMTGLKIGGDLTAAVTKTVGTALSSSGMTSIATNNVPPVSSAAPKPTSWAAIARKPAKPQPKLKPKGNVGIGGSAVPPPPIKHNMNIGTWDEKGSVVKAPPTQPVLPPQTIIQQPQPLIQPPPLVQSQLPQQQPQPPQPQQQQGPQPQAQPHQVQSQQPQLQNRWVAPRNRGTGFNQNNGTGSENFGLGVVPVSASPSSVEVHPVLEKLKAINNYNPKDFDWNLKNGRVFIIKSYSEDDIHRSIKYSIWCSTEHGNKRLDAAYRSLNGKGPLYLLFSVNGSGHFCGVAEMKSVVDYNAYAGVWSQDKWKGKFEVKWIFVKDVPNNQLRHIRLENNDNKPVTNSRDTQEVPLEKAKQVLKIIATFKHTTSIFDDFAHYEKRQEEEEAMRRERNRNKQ
Assay: EMSA
Conditions: LightShift Chemiluminescent RNA EMSA kit, 20 pmol RNA, 6 ug YTHDF3, room temperature 30 min, 6% TBE gel, 0.5x TBE, buffer salt and pH not stated, commercial protein, label: 5' biotin

| Sequence | binding result | other results |
| --- | --- | --- |
| CCCAGCAGAGACUGUUA [Foxo3-3'UTR-biotin-RNAProbe 5] | binds more weakly | – |
| GUGACUUGGACCUGGAC [Foxo3-CDS-biotin-RNAProbe 1] | binds more weakly | – |
| CAAGUGGACAGUGAUCC [Foxo3-3'UTR-m6A-biotin-RNAProbe 4] | – | binding result (m6A at A8): binds |
| GGAACAGAACUCUAUAA [Foxo3-3'UTR-m6A-biotin-RNAProbe 6] | – | binding result (m6A at A9): binds |
| CAAGUGGACAGUGAUCC [Foxo3-3'UTR-biotin-RNAProbe 4] | binds more weakly | – |
| CCCAGCAGAGACUGUUA [Foxo3-3'UTR-m6A-biotin-RNAProbe 5] | – | binding result (m6A at A11): binds |
| GGGGAACUUCACUGG [Foxo3-CDS-biotin-RNAProbe 3] | binds more weakly | – |
| CCGUAGUGAACUCAUG [Foxo3-CDS-m6A-biotin-RNAProbe 2] | – | binding result (m6A at A10): binds |
| GGAACAGAACUCUAUAA [Foxo3-3'UTR-biotin-RNAProbe 6] | binds more weakly | – |
| CCGUAGUGAACUCAUG [Foxo3-CDS-biotin-RNAProbe 2] | binds more weakly | – |
